No constants are given. Whether binding was seen depends on the method and setting. Binding seen in cells or lysates may run through a third protein. Some binding calls cover weakened binding; strength is not graded here.
Target: Histone deacetylase 2 (HDAC2) (human (endogenous in A549)) (UniProt Q92769)
Test: co-IP; endogenous proteins in A549 lysate (RIPA buffer, 1 mM PMSF); lysate pre-cleared with protein-A/G sepharose; IP with anti-HDAC2 or anti-YY1 at 4 °C for 8-12 h, normal IgG as negative control; washed with PBS; immunoblot

By UniProt entry, the sequences of proteins in these tests, tags left out.
UniProt Q92769: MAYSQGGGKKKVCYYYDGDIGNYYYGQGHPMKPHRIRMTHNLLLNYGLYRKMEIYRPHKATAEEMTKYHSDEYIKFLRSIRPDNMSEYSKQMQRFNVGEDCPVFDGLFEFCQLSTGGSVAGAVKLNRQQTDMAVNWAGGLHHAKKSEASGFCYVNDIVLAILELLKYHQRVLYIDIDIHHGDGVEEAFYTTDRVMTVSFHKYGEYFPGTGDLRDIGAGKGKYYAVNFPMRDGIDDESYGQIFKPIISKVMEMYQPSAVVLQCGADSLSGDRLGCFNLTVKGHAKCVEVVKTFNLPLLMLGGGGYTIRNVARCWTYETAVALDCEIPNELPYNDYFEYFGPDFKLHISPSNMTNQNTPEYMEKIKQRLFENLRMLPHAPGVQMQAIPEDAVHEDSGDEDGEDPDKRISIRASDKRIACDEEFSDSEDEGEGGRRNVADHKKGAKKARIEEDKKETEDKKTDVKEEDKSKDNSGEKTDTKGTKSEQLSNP
UniProt P25490: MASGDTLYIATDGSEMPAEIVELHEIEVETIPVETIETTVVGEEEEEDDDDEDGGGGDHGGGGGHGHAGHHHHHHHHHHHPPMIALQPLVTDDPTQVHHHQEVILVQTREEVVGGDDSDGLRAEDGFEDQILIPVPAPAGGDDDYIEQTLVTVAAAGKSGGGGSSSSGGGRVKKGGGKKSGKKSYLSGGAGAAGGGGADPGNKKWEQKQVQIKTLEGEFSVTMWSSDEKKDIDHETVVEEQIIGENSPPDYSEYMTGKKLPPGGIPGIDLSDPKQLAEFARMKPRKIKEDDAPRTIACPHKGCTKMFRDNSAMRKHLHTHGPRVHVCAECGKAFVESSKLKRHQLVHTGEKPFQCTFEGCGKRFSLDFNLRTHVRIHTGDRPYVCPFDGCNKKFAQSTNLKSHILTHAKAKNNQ

Yin Yang 1 (YY-1) (from UniProt P25490 1-414)
binding: binds

Reference: paper PMC10372082
